Measured values taken from PMC7948425.
Results are given in words; binding and its absence hold for the method and conditions named. Binding seen in cells or lysates may run through a third protein. Here binding means that the protein was enriched with, or labelled near, the bait; the list need not be complete. For some of these results: Tags and fused reporters may be left off the sequences shown.

Amino acid sequences for entries named in this document (tags omitted).
UniProt Q8N3U4: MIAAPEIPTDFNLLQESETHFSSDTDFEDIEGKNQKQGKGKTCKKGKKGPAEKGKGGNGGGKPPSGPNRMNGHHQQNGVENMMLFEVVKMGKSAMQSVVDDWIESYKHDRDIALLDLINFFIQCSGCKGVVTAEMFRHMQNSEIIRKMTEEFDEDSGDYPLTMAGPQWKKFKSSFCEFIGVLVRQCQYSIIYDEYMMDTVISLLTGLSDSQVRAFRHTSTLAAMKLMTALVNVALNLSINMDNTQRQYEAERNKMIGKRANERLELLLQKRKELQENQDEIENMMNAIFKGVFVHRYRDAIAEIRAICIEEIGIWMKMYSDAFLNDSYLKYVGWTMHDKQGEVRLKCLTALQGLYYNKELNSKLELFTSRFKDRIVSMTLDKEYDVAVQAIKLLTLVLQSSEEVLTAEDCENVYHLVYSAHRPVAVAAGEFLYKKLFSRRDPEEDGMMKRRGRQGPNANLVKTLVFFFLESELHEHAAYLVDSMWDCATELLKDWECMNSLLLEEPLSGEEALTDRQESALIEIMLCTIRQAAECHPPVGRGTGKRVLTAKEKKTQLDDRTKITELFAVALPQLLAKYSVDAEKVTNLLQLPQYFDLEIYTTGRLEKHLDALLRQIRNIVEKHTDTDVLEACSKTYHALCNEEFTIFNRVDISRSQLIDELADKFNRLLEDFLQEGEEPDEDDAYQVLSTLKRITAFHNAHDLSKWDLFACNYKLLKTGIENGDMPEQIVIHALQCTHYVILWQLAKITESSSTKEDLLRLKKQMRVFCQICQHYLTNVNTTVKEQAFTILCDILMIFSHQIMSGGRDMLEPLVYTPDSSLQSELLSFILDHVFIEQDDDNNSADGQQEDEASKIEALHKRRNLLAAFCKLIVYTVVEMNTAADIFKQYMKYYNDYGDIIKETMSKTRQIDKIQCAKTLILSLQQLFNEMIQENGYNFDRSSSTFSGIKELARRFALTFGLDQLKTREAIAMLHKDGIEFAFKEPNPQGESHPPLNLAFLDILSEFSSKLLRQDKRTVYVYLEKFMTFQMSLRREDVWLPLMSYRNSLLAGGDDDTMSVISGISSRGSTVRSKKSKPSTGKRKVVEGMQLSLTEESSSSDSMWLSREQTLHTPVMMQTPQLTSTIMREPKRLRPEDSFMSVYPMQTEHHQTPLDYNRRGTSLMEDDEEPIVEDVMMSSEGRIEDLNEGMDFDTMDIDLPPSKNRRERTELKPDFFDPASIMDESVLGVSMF
UniProt Q9UQE7: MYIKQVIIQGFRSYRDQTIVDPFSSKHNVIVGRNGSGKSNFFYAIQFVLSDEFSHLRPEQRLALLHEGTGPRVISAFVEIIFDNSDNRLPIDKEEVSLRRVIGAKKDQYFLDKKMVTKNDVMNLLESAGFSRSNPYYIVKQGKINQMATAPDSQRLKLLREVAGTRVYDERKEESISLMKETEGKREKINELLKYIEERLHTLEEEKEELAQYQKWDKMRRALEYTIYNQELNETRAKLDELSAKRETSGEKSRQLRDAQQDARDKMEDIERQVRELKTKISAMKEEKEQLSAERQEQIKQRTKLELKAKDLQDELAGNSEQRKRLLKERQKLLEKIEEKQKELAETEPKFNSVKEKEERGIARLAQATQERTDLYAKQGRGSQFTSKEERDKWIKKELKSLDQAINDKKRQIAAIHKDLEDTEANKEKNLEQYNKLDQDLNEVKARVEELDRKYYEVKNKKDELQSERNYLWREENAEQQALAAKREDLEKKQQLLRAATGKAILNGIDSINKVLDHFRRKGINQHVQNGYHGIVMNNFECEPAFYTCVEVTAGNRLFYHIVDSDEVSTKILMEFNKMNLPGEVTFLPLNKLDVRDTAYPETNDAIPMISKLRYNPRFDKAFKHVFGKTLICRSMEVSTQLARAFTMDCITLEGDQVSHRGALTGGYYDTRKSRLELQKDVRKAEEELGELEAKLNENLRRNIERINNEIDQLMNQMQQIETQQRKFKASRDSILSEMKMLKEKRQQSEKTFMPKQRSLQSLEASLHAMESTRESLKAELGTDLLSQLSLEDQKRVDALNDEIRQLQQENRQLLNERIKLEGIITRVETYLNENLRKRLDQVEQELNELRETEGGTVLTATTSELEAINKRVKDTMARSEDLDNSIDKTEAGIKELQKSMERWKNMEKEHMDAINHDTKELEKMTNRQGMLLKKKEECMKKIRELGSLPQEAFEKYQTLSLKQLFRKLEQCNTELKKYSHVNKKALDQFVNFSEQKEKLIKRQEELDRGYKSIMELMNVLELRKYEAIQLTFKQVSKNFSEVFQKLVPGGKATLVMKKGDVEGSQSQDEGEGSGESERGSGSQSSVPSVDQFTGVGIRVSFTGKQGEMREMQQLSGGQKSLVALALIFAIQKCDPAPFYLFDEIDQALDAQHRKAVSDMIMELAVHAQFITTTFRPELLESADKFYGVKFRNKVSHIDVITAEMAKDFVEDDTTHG

How the values were obtained:
Assay in all cases: affinity purification with mass spectrometry; dual-affinity purification (FLAG, then streptavidin) of dual epitope-tagged endogenous cohesin subunits from HCT116 nuclear extracts, mass spectrometry; primary data in ref. 13
[1] = biological target: STAG2 with FLAG/streptavidin binding peptide dual epitope tag, from the gene-edited endogenous allele (human (endogenous in HCT116)) (UniProt Q8N3U4)
[2] = biological target: SMC3 with FLAG/streptavidin binding peptide dual epitope tag, from the gene-edited endogenous allele (human (endogenous in HCT116)) (UniProt Q9UQE7)
[3] = biological target: T1, WAPL with FLAG/streptavidin binding peptide dual epitope tag, from the gene-edited endogenous allele (human (endogenous in HCT116)) (UniProt Q7Z5K2)
T1 sequence: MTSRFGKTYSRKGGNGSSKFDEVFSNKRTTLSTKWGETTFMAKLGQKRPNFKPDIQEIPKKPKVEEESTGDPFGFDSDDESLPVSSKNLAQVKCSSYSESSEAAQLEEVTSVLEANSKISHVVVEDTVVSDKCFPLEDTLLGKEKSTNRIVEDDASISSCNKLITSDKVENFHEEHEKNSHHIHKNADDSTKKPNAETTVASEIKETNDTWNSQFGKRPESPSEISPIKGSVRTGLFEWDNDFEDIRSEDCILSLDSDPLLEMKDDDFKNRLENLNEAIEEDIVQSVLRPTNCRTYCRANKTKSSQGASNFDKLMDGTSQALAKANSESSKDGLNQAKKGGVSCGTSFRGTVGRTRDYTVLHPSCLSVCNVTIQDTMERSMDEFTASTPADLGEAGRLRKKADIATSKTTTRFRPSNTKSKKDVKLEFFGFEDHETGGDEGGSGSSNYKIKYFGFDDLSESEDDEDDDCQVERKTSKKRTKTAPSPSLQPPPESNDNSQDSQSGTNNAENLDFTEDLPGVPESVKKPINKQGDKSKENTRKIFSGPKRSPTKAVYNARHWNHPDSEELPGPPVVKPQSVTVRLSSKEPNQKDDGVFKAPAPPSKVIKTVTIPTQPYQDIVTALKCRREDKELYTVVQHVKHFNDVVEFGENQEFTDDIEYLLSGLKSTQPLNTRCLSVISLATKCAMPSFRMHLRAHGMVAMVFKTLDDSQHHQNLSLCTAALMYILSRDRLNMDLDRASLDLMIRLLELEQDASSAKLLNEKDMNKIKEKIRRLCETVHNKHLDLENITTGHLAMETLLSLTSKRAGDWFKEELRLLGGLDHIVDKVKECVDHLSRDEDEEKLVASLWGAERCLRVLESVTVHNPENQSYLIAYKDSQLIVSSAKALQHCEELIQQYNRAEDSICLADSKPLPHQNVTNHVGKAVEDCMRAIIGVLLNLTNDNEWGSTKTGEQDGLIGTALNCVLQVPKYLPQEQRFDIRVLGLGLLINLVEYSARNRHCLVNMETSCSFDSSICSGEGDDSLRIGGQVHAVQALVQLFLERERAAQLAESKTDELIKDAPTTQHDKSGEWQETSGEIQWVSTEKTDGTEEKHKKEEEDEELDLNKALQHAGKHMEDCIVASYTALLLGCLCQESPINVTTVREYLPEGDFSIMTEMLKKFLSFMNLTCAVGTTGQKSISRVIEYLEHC

[4] = biological target: T2, PDS5A with FLAG/streptavidin binding peptide dual epitope tag, from the gene-edited endogenous allele (human (endogenous in HCT116)) (UniProt Q29RF7)
T2 sequence: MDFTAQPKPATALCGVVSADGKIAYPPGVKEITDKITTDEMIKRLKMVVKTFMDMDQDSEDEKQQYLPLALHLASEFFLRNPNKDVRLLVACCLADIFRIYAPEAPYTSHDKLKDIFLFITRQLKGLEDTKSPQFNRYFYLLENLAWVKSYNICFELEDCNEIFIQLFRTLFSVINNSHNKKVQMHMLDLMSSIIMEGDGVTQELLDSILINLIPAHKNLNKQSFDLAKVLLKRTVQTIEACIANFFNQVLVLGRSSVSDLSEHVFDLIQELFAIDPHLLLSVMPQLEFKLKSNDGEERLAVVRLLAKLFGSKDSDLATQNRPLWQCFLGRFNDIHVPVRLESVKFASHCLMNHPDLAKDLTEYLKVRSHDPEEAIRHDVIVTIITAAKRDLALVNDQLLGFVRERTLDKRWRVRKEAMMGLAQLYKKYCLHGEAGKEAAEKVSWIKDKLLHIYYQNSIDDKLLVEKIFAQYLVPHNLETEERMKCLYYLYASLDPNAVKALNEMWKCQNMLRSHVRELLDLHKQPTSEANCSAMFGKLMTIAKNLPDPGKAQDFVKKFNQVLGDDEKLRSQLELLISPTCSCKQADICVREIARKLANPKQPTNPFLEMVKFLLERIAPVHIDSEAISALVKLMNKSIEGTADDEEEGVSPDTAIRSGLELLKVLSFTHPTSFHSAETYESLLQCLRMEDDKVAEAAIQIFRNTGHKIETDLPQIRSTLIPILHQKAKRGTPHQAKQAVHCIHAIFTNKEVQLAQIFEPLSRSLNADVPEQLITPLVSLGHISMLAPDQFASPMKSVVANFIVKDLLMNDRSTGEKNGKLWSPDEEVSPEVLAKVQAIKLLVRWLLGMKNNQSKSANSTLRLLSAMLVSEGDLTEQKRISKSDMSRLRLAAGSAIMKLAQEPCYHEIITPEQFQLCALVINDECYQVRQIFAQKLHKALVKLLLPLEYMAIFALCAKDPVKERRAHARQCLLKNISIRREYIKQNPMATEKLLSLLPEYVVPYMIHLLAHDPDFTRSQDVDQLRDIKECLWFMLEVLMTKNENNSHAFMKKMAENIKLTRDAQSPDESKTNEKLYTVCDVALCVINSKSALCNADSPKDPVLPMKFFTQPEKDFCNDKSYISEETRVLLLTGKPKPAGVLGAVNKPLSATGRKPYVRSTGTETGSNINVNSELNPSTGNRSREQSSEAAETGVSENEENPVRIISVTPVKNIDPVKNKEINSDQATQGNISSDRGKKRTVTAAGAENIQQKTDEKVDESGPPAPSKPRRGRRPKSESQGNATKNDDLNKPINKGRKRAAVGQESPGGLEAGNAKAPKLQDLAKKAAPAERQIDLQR

Measured: binding

B1: Ubiquitin-Specific Protease 13 (USP13), endogenous (enzyme, UniProt Q92995 1-863)
chain: MQRRGALFGMPGGSGGRKMAAGDIGELLVPHMPTIRVPRSGDRVYKNECAFSYDSPNSEGGLYVCMNTFLAFGREHVERHFRKTGQSVYMHLKRHVREKVRGASGGALPKRRNSKIFLDLDTDDDLNSDDYEYEDEAKLVIFPDHYEIALPNIEELPALVTIACDAVLSSKSPYRKQDPDTWENELPVSKYANNLTQLDNGVRIPPSGWKCARCDLRENLWLNLTDGSVLCGKWFFDSSGGNGHALEHYRDMGYPLAVKLGTITPDGADVYSFQEEEPVLDPHLAKHLAHFGIDMLHMHGTENGLQDNDIKLRVSEWEVIQESGTKLKPMYGPGYTGLKNLGNSCYLSSVMQAIFSIPEFQRAYVGNLPRIFDYSPLDPTQDFNTQMTKLGHGLLSGQYSKPPVKSELIEQVMKEEHKPQQNGISPRMFKAFVSKSHPEFSSNRQQDAQEFFLHLVNLVERNRIGSENPSDVFRFLVEERIQCCQTRKVRYTERVDYLMQLPVAMEAATNKDELIAYELTRREAEANRRPLPELVRAKIPFSACLQAFSEPENVDDFWSSALQAKSAGVKTSRFASFPEYLVVQIKKFTFGLDWVPKKFDVSIDMPDLLDINHLRARGLQPGEEELPDISPPIVIPDDSKDRLMNQLIDPSDIDESSVMQLAEMGFPLEACRKAVYFTGNMGAEVAFNWIIVHMEEPDFAEPLTMPGYGGAASAGASVFGASGLDNQPPEEIVAIITSMGFQRNQAIQALRATNNNLERALDWIFSHPEFEEDSDFVIEMENNANANIISEAKPEGPRVKDGSGTYELFAFISHMGTSTMSGHYICHIKKEGRWVIYNDHKVCASERPPKDLGYMYFYRRIPS
binds: all assays above
